Some of these results come from one statement about several compounds together.
What was measured:
[1] = Stability of fumarate compounds in PBS buffer; assay type: physicochemical; settings: PBS 50 mM, pH 7.4, 25° C., 60 min, HPLC
porcine liver esterase = experiment: Hydrolysis of fumarate compounds in vitro (porcine liver esterase); assay type: in vitro ADME; settings: porcine liver esterase in PBS buffer pH 7.4, 25° C., ca. 24 h, HPLC

| SMILES | stable in PBS buffer [1] [%] | converted to MHF, monoester fumarates, and/or fumaric acid (porcine liver esterase) [%] |
| --- | --- | --- |
| CC(C)OC(=O)/C=C/C(=O)OCc1c[nH]c(=O)[nH]c1=O [Compound 3, O1-[(2,4-Dioxo-1H-pyrimidin-5-yl)methyl] O4-isopropyl (E)-but-2-enedioate] | > 90 | > 50 |
| COC(=O)/C=C/C(=O)OCc1c[nH]c(=O)[nH]c1=O [Compound 1, O4-[(2,4-Dioxo-1H-pyrimidin-5-yl)methyl] O1-methyl (E)-but-2-enedioate] | > 90 | > 50 |
| CCOC(=O)/C=C/C(=O)OCc1c[nH]c(=O)[nH]c1=O [Compound 2, O4-[(2,4-Dioxo-1H-pyrimidin-5-yl)methyl] O1-ethyl (E)-but-2-enedioate] | > 90 | > 50 |
| CCOC(=O)/C=C/C(=O)OCc1cc(=O)[nH]c(=O)[nH]1 [Compound 8, O4-[(2,4-Dioxo-1H-pyrimidin-6-yl)methyl] O1-ethyl (E)-but-2-enedioate] | > 90 | > 50 |
| CC(C)OC(=O)/C=C/C(=O)OCc1cc(=O)[nH]c(=O)[nH]1 [Compound 9, O1-[(2,4-dioxo-1H-pyrimidin-6-yl)methyl] O4-isopropyl (E)-but-2-enedioate] | > 90 | > 50 |
| COC(=O)/C=C/C(=O)OCc1cc(=O)[nH]c(=O)[nH]1 [Compound 7, O4-[(2,4-Dioxo-1H-pyrimidin-6-yl)methyl] O1-methyl (E)-but-2-enedioate] | > 90 | > 50 |
